Measurements as given in the supplement of paper PMC10849652.
The list shows a part of the results. Residues, ends and D or L forms follow the SMILES beside them. *: point of attachment. Cbz = O=C(OCc1ccccc1)*

Sequences of proteins named here, by UniProt entry; tags and fusion partners are left off. A change or cut given only in a name is not applied to a line headed by its entry.
UniProt P48739: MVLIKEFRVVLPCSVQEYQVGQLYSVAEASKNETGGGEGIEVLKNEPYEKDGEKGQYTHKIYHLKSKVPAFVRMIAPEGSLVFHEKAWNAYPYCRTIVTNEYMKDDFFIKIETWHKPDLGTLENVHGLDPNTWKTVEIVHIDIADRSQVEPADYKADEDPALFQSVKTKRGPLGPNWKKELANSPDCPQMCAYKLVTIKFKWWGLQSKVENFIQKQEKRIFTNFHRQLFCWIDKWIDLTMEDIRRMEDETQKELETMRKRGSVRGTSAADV
UniProt P35232: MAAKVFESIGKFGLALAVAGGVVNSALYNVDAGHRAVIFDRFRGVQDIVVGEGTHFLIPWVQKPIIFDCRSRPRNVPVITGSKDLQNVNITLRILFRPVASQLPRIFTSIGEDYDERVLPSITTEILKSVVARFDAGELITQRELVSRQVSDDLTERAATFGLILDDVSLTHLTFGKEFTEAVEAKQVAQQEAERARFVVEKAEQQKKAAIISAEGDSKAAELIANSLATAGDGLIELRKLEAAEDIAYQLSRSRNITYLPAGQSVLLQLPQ
UniProt O60825: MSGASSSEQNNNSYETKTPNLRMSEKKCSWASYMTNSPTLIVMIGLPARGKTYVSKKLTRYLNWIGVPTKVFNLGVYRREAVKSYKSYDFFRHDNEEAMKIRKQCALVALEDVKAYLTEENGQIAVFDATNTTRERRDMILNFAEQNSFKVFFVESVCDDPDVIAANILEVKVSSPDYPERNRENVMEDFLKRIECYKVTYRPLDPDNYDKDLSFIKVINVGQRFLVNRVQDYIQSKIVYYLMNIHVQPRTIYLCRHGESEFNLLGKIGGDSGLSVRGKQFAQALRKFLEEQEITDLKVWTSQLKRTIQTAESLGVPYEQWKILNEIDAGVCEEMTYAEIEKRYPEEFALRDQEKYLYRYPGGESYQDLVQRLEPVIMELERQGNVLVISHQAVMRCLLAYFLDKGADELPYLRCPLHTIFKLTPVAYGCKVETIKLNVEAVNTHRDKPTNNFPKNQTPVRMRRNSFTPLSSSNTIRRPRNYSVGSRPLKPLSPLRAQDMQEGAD
UniProt Q8IZ21: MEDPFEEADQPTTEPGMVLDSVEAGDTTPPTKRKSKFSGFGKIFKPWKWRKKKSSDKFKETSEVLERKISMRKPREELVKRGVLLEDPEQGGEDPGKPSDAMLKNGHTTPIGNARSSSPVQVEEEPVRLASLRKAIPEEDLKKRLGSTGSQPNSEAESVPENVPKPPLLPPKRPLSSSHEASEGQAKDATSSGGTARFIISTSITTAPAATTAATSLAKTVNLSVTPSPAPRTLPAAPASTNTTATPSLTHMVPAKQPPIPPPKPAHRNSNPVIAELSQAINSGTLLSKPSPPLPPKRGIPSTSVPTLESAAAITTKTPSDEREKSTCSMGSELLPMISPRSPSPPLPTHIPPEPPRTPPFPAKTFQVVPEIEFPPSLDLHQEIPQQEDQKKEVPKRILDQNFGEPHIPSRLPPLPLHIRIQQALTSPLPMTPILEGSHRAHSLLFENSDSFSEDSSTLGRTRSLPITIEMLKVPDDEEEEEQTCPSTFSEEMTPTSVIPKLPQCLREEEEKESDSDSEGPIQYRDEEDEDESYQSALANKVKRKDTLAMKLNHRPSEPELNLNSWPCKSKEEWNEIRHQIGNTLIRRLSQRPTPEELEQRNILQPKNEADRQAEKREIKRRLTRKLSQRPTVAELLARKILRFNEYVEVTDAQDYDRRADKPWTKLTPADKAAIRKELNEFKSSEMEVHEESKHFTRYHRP
UniProt Q16875: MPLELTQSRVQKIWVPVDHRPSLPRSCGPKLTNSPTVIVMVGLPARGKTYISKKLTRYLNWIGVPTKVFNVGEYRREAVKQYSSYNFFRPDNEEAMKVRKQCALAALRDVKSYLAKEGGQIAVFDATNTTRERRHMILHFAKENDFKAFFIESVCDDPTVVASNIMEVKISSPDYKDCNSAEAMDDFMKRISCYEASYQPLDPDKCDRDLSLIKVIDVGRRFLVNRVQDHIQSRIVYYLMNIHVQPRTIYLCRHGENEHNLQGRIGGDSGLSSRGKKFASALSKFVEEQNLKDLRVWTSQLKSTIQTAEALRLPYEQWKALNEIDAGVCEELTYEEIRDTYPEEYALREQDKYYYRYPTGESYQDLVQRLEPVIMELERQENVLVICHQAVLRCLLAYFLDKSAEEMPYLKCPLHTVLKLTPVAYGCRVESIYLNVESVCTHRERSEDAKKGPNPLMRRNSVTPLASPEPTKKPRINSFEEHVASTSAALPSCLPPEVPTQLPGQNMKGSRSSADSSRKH
UniProt P52209: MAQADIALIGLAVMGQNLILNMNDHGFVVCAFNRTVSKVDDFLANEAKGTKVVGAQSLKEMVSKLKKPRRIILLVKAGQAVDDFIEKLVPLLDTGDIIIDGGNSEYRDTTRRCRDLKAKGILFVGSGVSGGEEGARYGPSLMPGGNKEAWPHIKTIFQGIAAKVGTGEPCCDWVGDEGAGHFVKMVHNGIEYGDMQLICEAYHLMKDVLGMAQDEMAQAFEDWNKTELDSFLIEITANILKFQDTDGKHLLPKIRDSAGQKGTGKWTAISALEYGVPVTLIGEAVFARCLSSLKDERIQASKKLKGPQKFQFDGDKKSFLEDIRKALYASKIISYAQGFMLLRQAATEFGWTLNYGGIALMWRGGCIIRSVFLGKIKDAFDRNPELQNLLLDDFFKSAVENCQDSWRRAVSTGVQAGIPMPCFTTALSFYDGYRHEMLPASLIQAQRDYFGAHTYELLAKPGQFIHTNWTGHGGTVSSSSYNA
UniProt Q96G03: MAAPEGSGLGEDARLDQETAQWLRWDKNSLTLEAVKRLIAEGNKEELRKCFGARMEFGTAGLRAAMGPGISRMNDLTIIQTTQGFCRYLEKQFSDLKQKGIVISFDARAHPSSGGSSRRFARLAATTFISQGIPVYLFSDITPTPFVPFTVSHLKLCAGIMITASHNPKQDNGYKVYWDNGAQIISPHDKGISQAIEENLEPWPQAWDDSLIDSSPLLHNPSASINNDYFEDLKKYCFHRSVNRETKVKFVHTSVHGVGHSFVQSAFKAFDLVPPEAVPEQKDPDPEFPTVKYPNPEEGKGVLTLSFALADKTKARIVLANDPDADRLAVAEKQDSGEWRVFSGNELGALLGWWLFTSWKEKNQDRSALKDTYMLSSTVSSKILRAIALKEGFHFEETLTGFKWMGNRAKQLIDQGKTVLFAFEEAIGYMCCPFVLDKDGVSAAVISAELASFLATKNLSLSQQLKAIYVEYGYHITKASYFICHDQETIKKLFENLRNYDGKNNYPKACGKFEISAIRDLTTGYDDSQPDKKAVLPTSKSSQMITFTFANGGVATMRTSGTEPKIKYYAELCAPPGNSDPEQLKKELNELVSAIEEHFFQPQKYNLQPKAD
UniProt Q9BRB3: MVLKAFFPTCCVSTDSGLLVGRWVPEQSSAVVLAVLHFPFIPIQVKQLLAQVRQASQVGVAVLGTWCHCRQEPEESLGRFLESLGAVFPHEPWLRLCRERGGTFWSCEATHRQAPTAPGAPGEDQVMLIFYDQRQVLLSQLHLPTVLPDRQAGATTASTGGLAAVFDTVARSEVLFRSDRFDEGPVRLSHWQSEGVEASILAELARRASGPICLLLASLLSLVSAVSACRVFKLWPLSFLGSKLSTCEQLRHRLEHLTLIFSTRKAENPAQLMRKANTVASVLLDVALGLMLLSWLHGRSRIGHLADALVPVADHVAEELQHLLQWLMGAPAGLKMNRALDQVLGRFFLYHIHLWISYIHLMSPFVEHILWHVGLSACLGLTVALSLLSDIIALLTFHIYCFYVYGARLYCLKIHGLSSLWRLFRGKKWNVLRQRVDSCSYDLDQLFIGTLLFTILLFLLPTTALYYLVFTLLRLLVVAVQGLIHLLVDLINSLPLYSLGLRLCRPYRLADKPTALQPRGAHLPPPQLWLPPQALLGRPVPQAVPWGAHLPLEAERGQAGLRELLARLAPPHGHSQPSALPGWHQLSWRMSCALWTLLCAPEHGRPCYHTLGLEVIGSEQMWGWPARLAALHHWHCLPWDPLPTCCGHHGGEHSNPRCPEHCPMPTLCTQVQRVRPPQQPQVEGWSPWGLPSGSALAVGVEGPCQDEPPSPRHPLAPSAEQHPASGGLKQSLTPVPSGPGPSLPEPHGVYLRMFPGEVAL
UniProt P07737, whole entry, looked up: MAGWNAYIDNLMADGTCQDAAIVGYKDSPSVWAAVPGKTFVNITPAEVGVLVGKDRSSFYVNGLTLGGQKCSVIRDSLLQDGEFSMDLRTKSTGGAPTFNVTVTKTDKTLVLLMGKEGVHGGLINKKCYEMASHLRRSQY
UniProt P42338: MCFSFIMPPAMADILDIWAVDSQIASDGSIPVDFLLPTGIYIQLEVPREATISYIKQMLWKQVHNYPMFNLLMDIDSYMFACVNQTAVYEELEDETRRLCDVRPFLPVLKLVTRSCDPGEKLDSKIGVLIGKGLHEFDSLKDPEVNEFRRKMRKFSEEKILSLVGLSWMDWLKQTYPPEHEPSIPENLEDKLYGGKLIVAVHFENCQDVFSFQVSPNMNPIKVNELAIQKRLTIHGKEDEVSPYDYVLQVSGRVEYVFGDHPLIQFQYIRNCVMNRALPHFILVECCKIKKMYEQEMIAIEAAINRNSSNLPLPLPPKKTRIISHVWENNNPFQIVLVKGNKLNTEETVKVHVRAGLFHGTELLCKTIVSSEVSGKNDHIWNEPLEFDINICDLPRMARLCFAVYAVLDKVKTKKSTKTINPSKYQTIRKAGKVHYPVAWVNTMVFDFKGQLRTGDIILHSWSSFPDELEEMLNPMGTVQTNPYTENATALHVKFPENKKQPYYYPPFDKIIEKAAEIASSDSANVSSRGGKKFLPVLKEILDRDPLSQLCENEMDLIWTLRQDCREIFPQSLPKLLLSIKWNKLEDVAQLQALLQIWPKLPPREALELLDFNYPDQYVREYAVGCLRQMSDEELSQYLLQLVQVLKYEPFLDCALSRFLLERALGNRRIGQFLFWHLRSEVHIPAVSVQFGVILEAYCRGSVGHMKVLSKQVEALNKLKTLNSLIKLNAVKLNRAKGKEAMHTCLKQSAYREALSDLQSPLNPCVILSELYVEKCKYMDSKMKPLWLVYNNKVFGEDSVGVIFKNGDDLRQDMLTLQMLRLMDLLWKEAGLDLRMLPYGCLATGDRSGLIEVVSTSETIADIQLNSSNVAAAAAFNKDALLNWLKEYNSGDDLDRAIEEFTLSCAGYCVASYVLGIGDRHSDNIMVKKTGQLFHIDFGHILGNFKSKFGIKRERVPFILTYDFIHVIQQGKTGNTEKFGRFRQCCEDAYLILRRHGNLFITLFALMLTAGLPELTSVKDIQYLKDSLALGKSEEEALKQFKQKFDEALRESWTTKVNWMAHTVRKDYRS
UniProt Q01970, whole entry, looked up: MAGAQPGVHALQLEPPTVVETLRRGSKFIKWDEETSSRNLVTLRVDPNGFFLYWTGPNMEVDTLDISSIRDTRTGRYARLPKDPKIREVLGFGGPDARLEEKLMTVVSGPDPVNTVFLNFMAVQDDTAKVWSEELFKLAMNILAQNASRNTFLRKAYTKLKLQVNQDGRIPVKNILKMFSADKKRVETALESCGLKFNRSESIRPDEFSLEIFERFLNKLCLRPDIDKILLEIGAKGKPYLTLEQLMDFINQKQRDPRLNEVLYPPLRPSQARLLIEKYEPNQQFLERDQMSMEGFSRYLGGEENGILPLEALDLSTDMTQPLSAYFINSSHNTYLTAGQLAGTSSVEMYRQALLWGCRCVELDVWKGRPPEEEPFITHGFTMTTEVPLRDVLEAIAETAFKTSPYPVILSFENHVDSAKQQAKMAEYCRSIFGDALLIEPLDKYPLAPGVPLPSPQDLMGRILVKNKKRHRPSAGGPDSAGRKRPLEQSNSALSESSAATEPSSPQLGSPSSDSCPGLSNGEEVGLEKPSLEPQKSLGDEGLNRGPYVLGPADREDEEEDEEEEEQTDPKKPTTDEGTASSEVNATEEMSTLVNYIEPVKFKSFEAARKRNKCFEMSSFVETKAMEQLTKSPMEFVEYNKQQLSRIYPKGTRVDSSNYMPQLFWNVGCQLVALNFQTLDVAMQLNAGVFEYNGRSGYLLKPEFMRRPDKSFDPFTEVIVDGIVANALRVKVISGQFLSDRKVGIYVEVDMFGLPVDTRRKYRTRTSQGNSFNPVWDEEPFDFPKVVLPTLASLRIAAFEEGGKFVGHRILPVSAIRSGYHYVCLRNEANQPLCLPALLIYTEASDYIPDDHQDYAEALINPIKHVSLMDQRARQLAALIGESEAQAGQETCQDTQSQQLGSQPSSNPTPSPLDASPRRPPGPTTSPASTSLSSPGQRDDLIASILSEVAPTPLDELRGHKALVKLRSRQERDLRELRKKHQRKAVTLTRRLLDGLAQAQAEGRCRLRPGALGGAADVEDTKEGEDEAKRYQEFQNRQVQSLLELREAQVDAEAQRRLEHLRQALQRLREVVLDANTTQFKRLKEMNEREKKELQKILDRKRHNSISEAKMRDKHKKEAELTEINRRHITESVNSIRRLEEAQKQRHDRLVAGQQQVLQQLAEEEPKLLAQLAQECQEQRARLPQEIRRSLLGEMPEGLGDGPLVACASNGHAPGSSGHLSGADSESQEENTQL

Legend:
Assay in all cases: log2 fold change, soluble protein after heating vs DMSO (PISA); higher = thermal stabilisation; K562 cells, 10 uM, 30 min; active = over 0.2 and 3.5 SD of the protein, either way, in both replicates (recomputed)
[1] = compound: C#Cc1cccc(Nc2ncnc3cc(OCCOC)c(OCCOC)cc23)c1 [erlotinib]
Outline: (§1)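 K562 cells at 2×10^6 cells/mL were given 10 μM compound for 30 min. Aliquots then went through 3 min of heating across 48°C-58°C, were pooled, and were extracted in PBS with 0.5% NP-40 at 4°C, and the supernatant after 21,000xg for 90 min was quantified by TMTpro 16plex LC-MS/MS with channel sums equalised. Thermal stability relative to control samples, from duplicates, is given as log2 fold change.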

[2] = compound: C/C(=N\NC(=O)C1=CC(=CC=C1)S(=O)(=O)N2CCOCC2)/C3=C(C=CC(=C3)Cl)O
Outline: as §1

[3] = compound: C1=CC(=C(C=C1Cl)C2=NC3=NC=CN=C3C(=N2)NC4=CC=NC=C4)F
Outline: as §1

[4] = compound: C1=CC(=CC=C1C2=NC3=C(N2)C=C(C=C3)C(=O)N)OC4=CC=C(C=C4)Cl
Outline: as §1

[5] = compound: C1=CC2=C(C=CC(=C2)/C=C\3/C(=O)NC(=NCC4=CC=CS4)S3)N=C1
Outline: as §1

[6] = compound: C1=CC2=NC=CN=C2C=C1/C=C/3\C(=O)NC(=O)S3
Outline: as §1

[7] = compound: C1=CC=C(C=C1)C2=NC(=C(N2)C3=CC=NC=C3)C4=CC(=C(C=C4)Cl)O
Outline: as §1

[8] = compound: C1=CC=C2C(=C1)C3=NNC4=CC=CC(=C43)C2=O
Outline: as §1

[9] = compound: C1CCN(C1)C(=O)NC2=CC=CC(=C2)NC3=NC=C(C(=N3)NCCC4=CN=CN4)Br
Outline: as §1

[10] = compound: C1CN(CCC1(CC2=CC=C(C=C2)Cl)N)C3=NC=NC4=C3C=CN4
Outline: as §1

[11] = compound: C1COCCN1CCN2C3=CC=CC=C3N=C2NC(=O)C4=CC(=CC=C4)[N+](=O)[O-] [IRAK-1-4 Inhibitor I]
Outline: as §1

[12] = compound: C=CC(=O)N1CCC[C@@H](n2nc(-c3ccc(Oc4ccccc4)cc3)c3c(N)ncnc32)C1 [ibrutinib]
Outline: as §1

[13] = compound: CC(=O)c1cnc2ccc(-c3cc(Cl)c(O)c(Cl)c3)nc2c1N[C@H]1CC[C@H](CN(C)C)CC1
Outline: as §1

[14] = compound: CC(C)(C)Cn1c(N)nc2ccc(-c3[nH]c(C(C)(C)C)nc3-c3ccc(F)cc3)nc21 [ralimetinib]
Outline: as §1

[15] = compound: CC(C)(O)CC(=O)NCCn1ccc2ncnc(Nc3ccc(Oc4cccc(C(F)(F)F)c4)c(Cl)c3)c21
Outline: as §1

[16] = compound: CC(C)C1=C2N=C(C=C(N2N=C1)NCC3=CC=CC=C3)NCCCCCCN
Outline: as §1

[17] = compound: CC(C)C[C@@H](C=O)NC(=O)[C@H](CC(C)C)NC(=O)[C@H](CC(C)C)NC(=O)OCc1ccccc1
Outline: as §1

[18] = compound: CC(C)N(C[C@H]1O[C@@H](n2cnc3c(N)ncnc32)[C@H](O)[C@@H]1O)[C@H]1C[C@@H](CCc2nc3cc(C(C)(C)C)ccc3[nH]2)C1 [pinometostat]
Outline: as §1

[19] = compound: CC1=C(C(CC(=O)N1)C2=CC=C(C=C2)C(F)(F)F)C(=O)NC3=C(C=C4C(=C3)C=NN4)F
Outline: as §1

[20] = compound: CC1=C(C2=C(C=C1)C(=O)C3=CC=CC=C3N2CCCN)C
Outline: as §1

Measured: log2 fold change

PITPNB isoform 3 (UniProt P48739)
inactive: [1] -0.004 | [2] 0.042 | [3] 0.019 | [4] 0.014 | [5] 0.027 | [6] 0.017 | [7] 0.036 | [8] -0.008 | [9] 0.009 | [10] 0.01 | [11] 0.03 | [12] -0.012 | [13] 0.094 | [14] -0.044 | [15] -0.014 | [16] 0.036 | [17] 0.013 | [18] -0.024 | [19] -0.056 | [20] 0.045

PHB (UniProt P35232)
inactive: [1] -0.01 | [2] 0.007 | [3] 0.093 | [4] -0.016 | [5] 0.007 | [6] 0.015 | [7] 0.002 | [8] -0.007 | [9] 0.009 | [10] -0.002 | [11] 0.005 | [12] 0.004 | [13] -0.009 | [14] -0.081 | [15] -0.008 | [16] 0.011 | [17] -0.033 | [18] -0.033 | [19] 0.02 | [20] 0.048

PFKFB2 (UniProt O60825)
inactive: [1] 0.017 | [2] 0.001 | [3] 0.101 | [4] 0.009 | [5] 0.019 | [6] -0.064 | [7] 0.023 | [8] -0.043 | [9] 0.013 | [10] 0.054 | [11] 0.023 | [12] 0.029 | [13] -0.011 | [14] -0.029 | [15] 0.05 | [16] 0.04 | [17] -0.006 | [18] -0.043 | [19] -0.016 | [20] 0.025

PIGL (UniProt Q9Y2B2)
inactive: [1] -0.022 | [2] 0.022 | [3] -0.041 | [4] 0.031 | [5] 0.137 | [6] 0.037 | [7] -0.013 | [8] -0.13 | [9] 0.009 | [10] 0.128 | [11] 0.104 | [12] -0.003 | [13] 0.034 | [14] -0.111 | [15] 0.005 | [16] -0.064 | [17] 0.045 | [18] 0.005 | [19] 0.08 | [20] -0.117

PHACTR4 isoform 2 (UniProt Q8IZ21)
inactive: [1] 0.008 | [2] -0.028 | [3] 0.038 | [4] 0 | [5] 0.035 | [6] 0.023 | [7] -0.002 | [8] -0.059 | [9] -0.042 | [10] 0.051 | [11] -0.007 | [12] 0.038 | [13] 0.009 | [14] -0.004 | [15] -0.027 | [16] 0.102 | [17] 0 | [18] -0.047 | [19] -0.035 | [20] 0.017

PFKFB3 isoform 4 (UniProt Q16875)
inactive: [1] -0.04 | [2] 0.038 | [3] 0.074 | [4] 0.013 | [5] 0.039 | [6] -0.063 | [7] 0.005 | [8] -0.005 | [9] -0.035 | [10] 0.003 | [11] 0.033 | [12] 0.026 | [13] -0.039 | [14] -0.034 | [15] -0.071 | [16] 0.007 | [17] -0.037 | [18] 0.001 | [19] 0.042 | [20] 0.104

PGD (UniProt P52209)
inactive: [1] 0.025 | [2] 0.02 | [3] 0.086 | [4] 0.009 | [5] -0.015 | [6] -0.014 | [7] -0.018 | [8] 0.034 | [9] 0.021 | [10] 0.045 | [11] 0.074 | [12] 0 | [13] -0.02 | [14] -0.058 | [15] -0.021 | [16] 0.015 | [17] -0.012 | [18] -0.002 | [19] 0.004 | [20] 0.025

PGM2 (UniProt Q96G03)
inactive: [1] 0.001 | [2] 0.001 | [3] 0.037 | [4] 0.015 | [5] -0.018 | [6] 0.003 | [7] -0.008 | [8] -0.024 | [9] 0.015 | [10] 0.069 | [11] 0.011 | [12] 0.005 | [13] 0.007 | [14] -0.057 | [15] -0.026 | [16] 0.048 | [17] -0.04 | [18] -0.047 | [19] 0.006 | [20] -0.003

PIGQ (UniProt Q9BRB3)
inactive: [1] 0.161 | [2] 0.099 | [3] 0.103 | [4] -0.126 | [5] -0.081 | [6] 0.011 | [7] -0.093 | [8] 0.027 | [9] 0.003 | [10] -0.033 | [11] -0.04 | [12] 0.097 | [13] 0.03 | [14] -0.03 | [15] -0.094 | [16] 0.186 | [17] 0.161 | [18] 0.138 | [19] -0.094 | [20] 0.022

PISD (UniProt Q9UG56)
inactive: [1] -0.021 | [2] -0.055 | [3] 0.026 | [4] 0.089 | [5] 0.034 | [6] 0.023 | [7] 0.02 | [8] 0.058 | [9] 0.009 | [10] -0.004 | [11] -0.013 | [12] -0.038 | [13] -0.068 | [14] 0.02 | [15] -0.066 | [16] 0.001 | [17] 0.005 | [18] -0.013 | [20] 0.147

PFN1 (UniProt P07737)
inactive: [1] -0.014 | [2] 0.059 | [3] 0.091 | [4] -0.004 | [5] -0.005 | [6] 0.003 | [7] 0.003 | [8] 0.02 | [9] -0.016 | [10] 0.022 | [11] 0.03 | [12] 0.017 | [13] 0 | [14] -0.05 | [15] 0.005 | [16] 0.021 | [17] -0.04 | [18] -0.034 | [19] -0.005 | [20] -0.003

Looked up one by one from the entries so far (two):
PFN1 (UniProt P07737)
inactive: [1] -0.014 | [2] 0.059 | [3] 0.091 | [4] -0.004 | [5] -0.005 | [6] 0.003 | [7] 0.003 | [8] 0.02 | [9] -0.016 | [10] 0.022 | [11] 0.03 | [12] 0.017 | [13] 0 | [14] -0.05 | [15] 0.005 | [16] 0.021 | [17] -0.04 | [18] -0.034 | [19] -0.005 | [20] -0.003

PGD (UniProt P52209)
inactive: [1] 0.025 | [2] 0.02 | [3] 0.086 | [4] 0.009 | [5] -0.015 | [6] -0.014 | [7] -0.018 | [8] 0.034 | [9] 0.021 | [10] 0.045 | [11] 0.074 | [12] 0 | [13] -0.02 | [14] -0.058 | [15] -0.021 | [16] 0.015 | [17] -0.012 | [18] -0.002 | [19] 0.004 | [20] 0.025

Further results.

PIK3CB (UniProt P42338)
inactive: [1] 0.07 | [2] 0.018 | [3] 0.002 | [4] -0.022 | [5] 0.081 | [6] 0.09 | [7] 0.032 | [8] 0.014 | [9] -0.016 | [10] 0.004 | [11] -0.051 | [12] -0.049 | [13] 0.082 | [14] 0.013 | [15] -0.082 | [16] -0.082 | [17] 0.02 | [18] -0.069 | [20] 0.041

PGRMC1 (UniProt O00264)
inactive: [1] 0.012 | [2] -0.001 | [3] 0.033 | [4] -0.014 | [5] -0.029 | [6] 0.017 | [7] 0.072 | [8] -0.026 | [9] 0.034 | [10] 0.03 | [11] 0.041 | [12] 0.019 | [13] -0.012 | [14] -0.006 | [15] 0.034 | [16] 0.04 | [17] -0.067 | [18] -0.048 | [19] 0.006 | [20] -0.015

PFKL isoform 2 (UniProt P17858)
inactive: [1] -0.008 | [2] -0.016 | [3] 0.041 | [4] 0.043 | [5] 0.023 | [6] 0.013 | [7] -0.005 | [8] -0.005 | [9] -0.02 | [10] 0.053 | [11] 0.015 | [12] 0.018 | [13] 0.003 | [14] -0.053 | [15] 0.02 | [16] 0.108 | [17] -0.058 | [18] -0.022 | [19] 0.015 | [20] 0.013

PLCB3 (UniProt Q01970)
inactive: [1] -0.004 | [2] 0.028 | [3] 0.005 | [4] 0.023 | [5] 0.054 | [6] 0.016 | [7] -0.011 | [8] 0.034 | [9] -0.057 | [10] -0.07 | [11] -0.013 | [12] -0.026 | [13] -0.017 | [14] 0.014 | [15] -0.064 | [16] -0.138 | [17] -0.003 | [18] 0.01 | [20] 0.004
